This is an account of results in PubChem BioAssay AID2685 (National Center for Advancing Translational Sciences (NCATS), 2010).

This is one part of the list. Shown are side measurements of this screen, not its main read-out; they come without a call. Most of these compounds were active or inconclusive in the main read-out, so they are no random draw. Potencies come from curve fits of mixed quality, noted in brackets.

The nature of the assay: qHTS Assay for Lipid Storage Modulators in Drosophila S3 Cells.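 For cell number change: cells counted by Cell Tracker Red CMTPX staining in the red channel.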 As to conditions: BODIPY lipid droplet fluorescence, 18-24 h; for cell number change: measured here: cell count max response, cells fed with added oleic acid. In outline: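 Drosophila S3 cells loaded with oleic acid (400 uM, as added) and compounds at several concentrations; lipid droplets imaged by 488-nm laser-scanning cytometry, 500–530 nm intensity and object ratio to cell channel. Percent activity normalized to 20 uM Triacsin C.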
A general note: Quantitative high-throughput screening tests each substance at several concentrations.

Setting [1] is: measured here: cell number channel AC50, cells fed with added oleic acid.
[2] abbreviates: measured here: lipid fluorescence (Fed channel) AC50, cells fed with added oleic acid.

Take `Cc1c(C)c2ccc(OCC(=O)N3CCC(C(=O)O)CC3)cc2oc1=O`: the cell number change was 31.7%. Further, under setting [1], the AC50 is 25.9 µM [rising, single point]. Besides, under setting [2], the concentration at half-maximal activity (AC50) was 29.1 µM [rising, single point]. Consider `CC(=O)Nc1ccc(S(=O)(=O)N2CCC(NC(=O)C(Cc3ccccc3F)NC(C)=O)CC2)cc1` (stereo unspecified), for which the cell number change was 5.24%. Under setting [2], the AC50 was 32.6 µM [rising, single point]. On to `S=c1[nH]c(-c2ccccc2)cn1/N=C/c1ccccc1Br`, for which the cell number change was found to be 53.4%. Besides, under setting [1], the AC50 is 16.4 µM [rising, single point].

For the molecule `C=CCn1cc(CN2CCC(C(=O)Nc3cccc(-c4cccc(Cl)c4)c3)CC2)c(C)n1`, under setting [2], the AC50 is 6.51 µM [rising, single point].

In the case of `CC1CCN(C(=O)COc2ccccc2F)CC1`, the cell number change is 3.23%. The AC50 under setting [2] is 6.51 µM [rising, single point].

As for `COc1ccc(C(=O)N2CCNC(=O)C2CC(=O)Nc2ccc(C)cc2)cc1` (stereo unspecified), the cell number change stood at 2.26%. Moreover, under setting [1], the AC50 was 1.3 µM [rising, full curve, poor fit]. The AC50 under setting [2] is 0.731 µM [rising, full curve].

Take `CCOc1cc(C(=O)N2CCN(c3ccccc3)CC2)cc(OCC)c1OCC`: the cell number change was 83.5%. Under setting [1], the AC50 is 14.6 µM [rising, partial curve]. The AC50 under setting [2] is 6.51 µM [rising, single point]. As for `COc1ccc(C2=Nn3c([n+](C)c4ccccc43)SC2)cc1`, the cell number change was -53.5%. Moreover, the AC50 under setting [1] was 16.4 µM [falling, single point]. In addition, the AC50 under setting [2] was 8.2 µM [falling, partial curve].

`Cc1c(NC(=O)Nc2ccccc2Cl)sc(=S)n1C`: the cell number change is -1.54%. In addition, under setting [2], the AC50 was 11.6 µM [rising, partial curve]. Consider `Cc1sc2ncnc(Oc3ccc(-n4ccnc4)cc3)c2c1C`, for which the cell number change was -11.2%. Also, under setting [2], the AC50 was 4.11 µM [rising, full curve]. In the case of `O=C(Nc1ccc(Cn2ccnc2)cc1)c1cccc(C(F)(F)F)c1`, the cell number change is -22.3%. The half-maximal activity concentration (AC50) under setting [2] is 6.51 µM [rising, single point]. Consider `CCOC(=O)C1CCCN(C(=O)CSc2nccn2C)C1` (stereo unspecified), for which the cell number change came to 0.852%. In addition, the AC50 under setting [2] was 0.58 µM [falling, single point]. On to `C=C1CCc2c([nH]c3ccc(OCC(C)C)cc23)C1=O`, for which the cell number change was -49.6%. Besides, under setting [1], the AC50 was 10.3 µM [falling, partial curve]. For the same molecule, under setting [2], the AC50 was 8.2 µM [falling, partial curve]. On to `CCN(CC)CCN1C(=O)c2oc3ccccc3c(=O)c2C1c1cccc(Br)c1` (stereo unspecified), for which the cell number change is -3.17%. Moreover, under setting [2], the AC50 was 29.1 µM [rising, single point].

Turning to `CCOC(=O)Cc1csc(NC(=O)c2c(-c3c(F)cccc3Cl)noc2C)n1`, the cell number change came out at 5.61%. Besides, the half-maximal activity concentration (AC50) under setting [2] was 6.51 µM [rising, single point]. On to `COc1ccccc1/C=C/CN1CC(C)OC(C)C1` (stereo unspecified), for which the cell number change is 10%. In addition, under setting [2], the AC50 is 14.6 µM [rising, single point]. Regarding `C=CCNc1nc(Cl)nc(NC2CCCCC2)n1`, the cell number change stood at 14.7%. Moreover, the AC50 under setting [2] is 0.58 µM [rising, single point].

Regarding `O=C(/C=C/c1ccc(Cl)cc1)Nc1ccc(N2CCCCC2)cc1`, the concentration at half-maximal activity (AC50) under setting [2] is 0.651 µM [falling, single point]. As to `Cc1c(NC(=O)c2cc(-c3ccc4c(c3)OCO4)on2)c(=O)n(-c2ccccc2)n1C`, the cell number change was -0.703%. In addition, the AC50 under setting [2] is 25.9 µM [falling, single point].

On to `O=S(=O)(NCC(O)c1ccccc1)c1ccc(-c2ccccn2)s1` (stereo unspecified), for which the cell number change was -52.6%. Further, the AC50 under setting [1] was 29.1 µM [falling, single point]. Further, the AC50 under setting [2] was 29.1 µM [falling, single point]. As to `O=C(Nc1ccc(C(F)(F)F)cc1)c1csc(-c2ccncc2)n1`, the cell number change worked out at 8.25%. Under setting [2], the concentration at half-maximal activity (AC50) was 0.0103 µM [rising, full curve, poor fit]. On to `Cc1ccc(-c2nnc3sc(C4COc5ccccc5O4)nn23)cc1` (stereo unspecified), for which the cell number change was determined as 1.83%. In addition, the AC50 under setting [2] is 18.4 µM [falling, single point].

In the case of `O=C(N/C(=C/c1cn(-c2ccccc2)nc1-c1ccccc1)C(=O)N1CCOCC1)c1ccc(Cl)cc1Cl`, the AC50 under setting [2] is 1.03 µM [rising, full curve]. As to `Cc1ccc(-c2nnc(-c3ccccc3Br)o2)cc1`, the cell number change was found to be 14.6%. On to `CCOC(=O)CCC(=O)N1CCOCCOCCN(C(=O)CCC(=O)OCC)CCOCCOCC1`, for which the cell number change was 18.6%. Besides, the AC50 under setting [2] is 0.58 µM [falling, single point]. Consider `CSCCC(NC(=O)c1ccccc1Cl)C(=O)N1CCCCC1` (stereo unspecified), for which the cell number change was found to be 22.6%. Also, under setting [2], the AC50 is 6.51 µM [rising, partial curve]. For `COC(=O)c1ccccc1NC(=O)c1nc2nc(C)cc(C(F)F)n2n1`, the cell number change is 8.79%. The AC50 under setting [2] was 0.82 µM [rising, full curve]. Take `O=C(Nc1cccc2ncccc12)c1cccc(Br)c1`: the cell number change came out at 9.01%.

For the molecule `Cc1cccc(C(=O)NCCNC(=O)c2ccccn2)c1`, the AC50 under setting [1] was 6.51 µM [rising, single point]. As for `C[C@H](NC(=O)OC(C)(C)C)c1nnc(SCC(=O)Nc2cccc(Cl)c2)o1`, the cell number change was -16.1%. Under setting [2], the AC50 was 0.103 µM [falling, full curve, poor fit]. Turning to `CC(=O)Nc1ccc(OC(F)(F)C(F)C(F)(F)F)c(NC(C)=O)c1` (stereo unspecified), the cell number change was determined as 21.2%. For the same molecule, the AC50 under setting [2] is 6.51 µM [rising, single point].

As to `Cc1ccc(C)c(NS(=O)(=O)c2cc(C(=O)NCc3ccco3)ccc2C)c1`, the cell number change was 11.1%. In addition, the AC50 under setting [2] was 0.366 µM [rising, full curve]. As for `O=C(NCCCN1CCCCC1)c1ccc2c(c1)NC(=O)C(N1CCCCC1)S2` (stereo unspecified), the cell number change is -1.39%. For the same molecule, under setting [1], the AC50 was 3.66 µM [falling, single point].

Consider `CCOc1ccc(NC(=O)CN2C(=O)CSc3ccc(S(=O)(=O)N4CCOCC4)cc32)cc1`, for which the cell number change amounted to 7.91%. Further, the AC50 under setting [2] is 6.51 µM [rising, single point].

For `CC1C[N+](=C2C=C(N3CCOCC3)CC(C)(C)C2)CC(C)O1` (stereo unspecified), the cell number change is 0.0823%. Moreover, the AC50 under setting [2] was 0.731 µM [falling, partial curve, poor fit]. `O=C1CCC(=O)N1OCCCOc1ccc2c(c1)CCC2`: the cell number change came out at 15.8%. The concentration at half-maximal activity (AC50) under setting [2] was 16.4 µM [rising, single point]. Take `N#Cc1c(NC(=O)c2ccc([N+](=O)[O-])o2)sc2c1CCC2`: the cell number change amounted to 3.42%. For `CN(CCC#N)C(=S)Nc1ccc(Oc2ccccc2)cc1`, the cell number change is -26.8%. Moreover, the half-maximal activity concentration (AC50) under setting [2] was 5.8 µM [rising, single point]. `O=C(c1cc(-c2cccs2)on1)N1CCN(C(c2ccccc2)c2ccccc2)CC1`: the cell number change is -10.7%.

In general, AC50 refers to the concentration at which the activity in the assay is half-maximal. Higher therefore signals activity only at high concentration.
